Measured values: PubChem BioAssay (NCATS)
Inconclusive results, whose numbers are uncertain, are shown with a selection of clear calls. Potencies beside an inconclusive call are fits to weak or partial responses and may not hold up. The source made the active and inactive calls. The call rests on the fitted dose curve; in most records, active means well fitted cell-killing curve with a large enough effect; inconclusive means small, poorly fitted or top-dose-only effect; inactive means flat fitted curve, though single readings scatter.

Assay: Identifying Small Molecule Inhibitors of Pancreatic Cancer Stem Cells (SN12C, Adherent) (AID 1259358);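 further: cell survival measured after 48 h of compound exposure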
Settings: viability/growth inhibition; series mostly up to 46.1 µM; viability (percent of control): at the top concentration
Method in brief: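 Luminescent ATP readout (CellTiter-Glo) quantifies surviving cells after a 48 h drug incubation. Normalization uses DMSO wells as no inhibition and media-only wells as full inhibition; bortezomib served as positive control.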
Potency means the concentration at half of the fitted maximal effect.

SMILES | Potency | viability (percent of control)
CC[C@@H]1C(=O)N(C)c2cnc(Nc3ccc(C(=O)NC4CCN(C)CC4)cc3OC)nc2N1C1CCCC1 | inconclusive: 18.7 µM [cytotoxic, partial curve] | 
Cc1ccc(C(=O)N(CCCN)[C@@H](c2nc3cc(Cl)ccc3c(=O)n2Cc2ccccc2)C(C)C)cc1 | inconclusive: 37.2 µM [cytotoxic, partial curve, poor fit] | 
Cc1c(C)c2c(c(C)c1O)CCC(C)(COc1ccc(CC3SC(=O)NC3=O)cc1)O2 (stereo unspecified) |  | inactive: 107%
CCN1CCN(CC(=O)Nc2ccc(-c3cccc4c(=O)cc(N5CCOCC5)oc34)c3sc4ccccc4c23)CC1 | inconclusive: 0.166 µM [cytotoxic, partial curve, poor fit] | 
Cc1cc2c(C(C)C)c(O)c(O)c(C=O)c2c(O)c1-c1c(C)cc2c(C(C)C)c(O)c(O)c(C=O)c2c1O | inconclusive: 20.9 µM [cytotoxic, partial curve, poor fit] | 
CC(C)Oc1cc(Nc2nc(N[C@@H](C)c3ccc(F)cn3)ncc2Cl)[nH]n1 | inconclusive: 7.43 µM [cytotoxic, partial curve] | 
COc1cc2c(Oc3ccc4[nH]c(C)cc4c3F)ncnc2cc1OCCCN1CCCC1 | active: 2.35 µM | 
COC(=O)c1ccc2c(C(=Nc3ccc(N(C)C(=O)CN4CCN(C)CC4)cc3)c3ccccc3)c(O)[nH]c2c1 | active: 18.7 µM | 
Cc1nc2cnc3ccc(C#Cc4cccnc4)cc3c2n1-c1ccc(C(C)(C)C#N)cc1 | active: 1.18 µM | 
CCC(C)(C)C(=O)O[C@H]1C[C@@H](C)C=C2C=C[C@H](C)[C@H](CC[C@@H]3C[C@@H](O)CC(=O)O3)[C@H]21 | inconclusive: 11.3 µM [cytotoxic, single point] | 
O=C(c1cc(Cc2n[nH]c(=O)c3ccccc23)ccc1F)N1CCN(C(=O)C2CC2)CC1 | inconclusive: 20.9 µM [cytotoxic, single point] | 

Full records, looked up by structure:
O=C(c1cc(Cc2n[nH]c(=O)c3ccccc23)ccc1F)N1CCN(C(=O)C2CC2)CC1 as listed: Potency: inconclusive: 20.9 µM [cytotoxic, single point]
Cc1cc2c(C(C)C)c(O)c(O)c(C=O)c2c(O)c1-c1c(C)cc2c(C(C)C)c(O)c(O)c(C=O)c2c1O as listed: Potency: inconclusive: 20.9 µM [cytotoxic, partial curve, poor fit]
